The text below walks through data of article PMC10235086.

No constants are given. Whether binding was seen depends on the method and setting. In cells and extracts the contact can be indirect. These calls come from enrichment with a bait or labelling near it, and not all partners need be listed. For some assays here: No binding means not detected with the bait.

Assay [1] addresses T1, Rat1-ProteinA (S. cerevisiae (endogenous in yeast W303-1A)) (UniProt Q02792).
T1 sequence: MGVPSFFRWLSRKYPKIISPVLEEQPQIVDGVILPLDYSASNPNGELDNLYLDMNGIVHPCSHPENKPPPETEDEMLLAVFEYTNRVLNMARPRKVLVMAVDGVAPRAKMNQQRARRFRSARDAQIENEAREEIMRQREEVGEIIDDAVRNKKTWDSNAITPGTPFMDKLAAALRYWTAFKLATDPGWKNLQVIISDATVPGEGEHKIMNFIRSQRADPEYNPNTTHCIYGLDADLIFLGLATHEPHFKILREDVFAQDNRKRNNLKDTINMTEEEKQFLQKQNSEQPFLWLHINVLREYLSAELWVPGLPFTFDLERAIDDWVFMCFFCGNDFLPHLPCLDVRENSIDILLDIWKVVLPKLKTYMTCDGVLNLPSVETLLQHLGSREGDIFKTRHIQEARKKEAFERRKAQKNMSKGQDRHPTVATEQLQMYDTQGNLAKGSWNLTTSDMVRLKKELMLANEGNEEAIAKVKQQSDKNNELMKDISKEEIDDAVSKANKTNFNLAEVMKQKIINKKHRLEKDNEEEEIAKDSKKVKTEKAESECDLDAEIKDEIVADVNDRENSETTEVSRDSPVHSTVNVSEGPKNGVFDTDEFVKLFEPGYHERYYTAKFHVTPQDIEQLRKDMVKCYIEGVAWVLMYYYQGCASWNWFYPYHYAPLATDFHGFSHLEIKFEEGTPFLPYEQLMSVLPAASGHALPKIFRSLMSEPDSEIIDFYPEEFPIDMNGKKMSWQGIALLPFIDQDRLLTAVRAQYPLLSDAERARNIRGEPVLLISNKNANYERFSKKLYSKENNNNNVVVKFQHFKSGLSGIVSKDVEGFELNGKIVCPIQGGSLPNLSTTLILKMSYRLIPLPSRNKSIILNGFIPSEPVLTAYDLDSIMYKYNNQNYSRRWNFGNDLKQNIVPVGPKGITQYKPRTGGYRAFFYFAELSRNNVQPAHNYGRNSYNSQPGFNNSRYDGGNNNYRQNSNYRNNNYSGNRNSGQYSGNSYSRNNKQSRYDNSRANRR
As to the kind of experiment: affinity purification with mass spectrometry; Rat1 endogenously tagged at its C-terminus with Protein A; cells grown in YPDA; lysate on IgG-agarose beads as for Rio1; on-bead digestion, LC-MS/MS; untagged wild-type strain as negative control; three independent purifications.

Assay [2] concerns the target T2, ProteinA-Rio1 (S. cerevisiae) (UniProt Q12196).
T2 sequence: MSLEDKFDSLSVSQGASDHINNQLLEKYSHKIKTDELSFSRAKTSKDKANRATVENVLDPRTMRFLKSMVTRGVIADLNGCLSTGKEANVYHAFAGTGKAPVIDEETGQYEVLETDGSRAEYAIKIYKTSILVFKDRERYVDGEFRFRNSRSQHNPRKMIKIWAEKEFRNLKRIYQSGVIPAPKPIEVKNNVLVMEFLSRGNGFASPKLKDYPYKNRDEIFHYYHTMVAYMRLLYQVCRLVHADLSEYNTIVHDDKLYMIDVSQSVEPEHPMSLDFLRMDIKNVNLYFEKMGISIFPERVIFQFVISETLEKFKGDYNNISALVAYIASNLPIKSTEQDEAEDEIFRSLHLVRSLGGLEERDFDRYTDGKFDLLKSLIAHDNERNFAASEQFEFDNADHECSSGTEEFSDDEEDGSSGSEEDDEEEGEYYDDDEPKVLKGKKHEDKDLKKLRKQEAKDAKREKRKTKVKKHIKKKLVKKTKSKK
As to the kind of experiment: affinity purification with mass spectrometry; ProteinA-Rio1 expressed from PGAL1-10 (2% galactose, 2 h) in pep4∆ yeast; cleared lysate (50 mM Tris-Cl pH 7.5, 10% glycerol, 150 mM NaCl, 1 mM DTT, 0.4% NP-40) on rabbit IgG agarose beads overnight at 4 °C; washed with PBS-T; on-bead digestion …; untagged Rio1 as negative control; three independent purifications.

B1: Las1 (protein, UniProt P36146 1-502)
chain: MIPPRIVPWRDFAELEELKLWFYPKSKGTIEDKRQRAVQRVQSYRLKGSQYLPHVVDSTAQITCAVLLDEKEACLGVHQDSIPIRLSYVMALIRFVNGLLDPTQQSQFAIPLHTLAAKIGLPSWFVDLRHWGTHERDLPGLEMLRWAANEALSWLYDHYWNDEELEDDRDDDDDDDDTGYGYRRNDKLEKYMESLTKTLDKWKRLRNEFLEYKWVWENANDSLITSSNFSGDNLVNYDAEKRKSSHASSSETMIRENLRQWQELWKLSIYHNVVLEKFFNNYDPLLLKVLMLNLNNFDWKVIEWVARNYRTQQDDSNITTILKRKFNAWKELQKRLLDVIINNLNNKNFKNKWQNWEKLIDENASYLILYFCQSMLAKLETEKITGNSWRNKKRRKQIDSTVEIEAKLKENIDNLSLRFNEGEIKLYDFIPAEKDSVPLKKEVSPALKADTNDILGDLASLKQRMSSFGTVGKKNKQEENRATPVKNWSRVQNWKPKPFGVL
Regarding B1, the binding result in assay [1] and in assay [2] was “binds” in each case.

B2: Grc3 (protein, UniProt Q07845 1-632)
chain: MVIDSKQDLPQYTKDSGSESDSDSSNNFIVESPSIPSSKSATVVLNSEEYEDDEGDDLNGLDAELIDNITYEGDEDETMFVGLKEKQKLHLSGVFRLQVVKGGIVYNNVHYNASREILTFWHPLSQSIPTIDFSHFAGWQDTFFMPRNNRFKIRDEEFKSFPCVLRVFNSNHTGLLEAGHLYRDVNYLWKPKEPYFPLNERTTYHLLHESDRIQSLSVPGYWSTPLEKLYLSHKNAAYDTRIMVIGGKNSGKSTFLRLLLEKFTQDIRDSTTSQEELVYLDLDPGQPEYSLPDSISLNKILSSPISLGQHLCQGSNFQTLLQFYAGSSSPQDEPTSYLNCADKLIDHLEEQAFFGTSLLNLPGWIKGFGMQILNHIIRKYKPTHLLFLETANSKRHLDELTIPQSFSTSLRDAYAPEVVRVPAHSLNHTLSSRFHASQLRTFKILALFHKITQFDYDFAPLLKSAPLQISYGKGKSGIKGIQFPMEFQDLNPQDIKSALEGTVIGIYTYSGEDSLEVKSLNTFPILQSCTSSSKNFITLGLIHSIDTSQQIMNIYVPPCHTQILDKQPEDAQWIIVRNKTETPFCDFLPSPRTITWDDNIQIPFATFERRKKLEHVWKVRKNVMRRGQFMKR
For B2, the binding entry in assay [1] and in assay [2] was “binds” in each case.

B3: Rio1 (enzyme, UniProt Q12196 1-484)
chain: MSLEDKFDSLSVSQGASDHINNQLLEKYSHKIKTDELSFSRAKTSKDKANRATVENVLDPRTMRFLKSMVTRGVIADLNGCLSTGKEANVYHAFAGTGKAPVIDEETGQYEVLETDGSRAEYAIKIYKTSILVFKDRERYVDGEFRFRNSRSQHNPRKMIKIWAEKEFRNLKRIYQSGVIPAPKPIEVKNNVLVMEFLSRGNGFASPKLKDYPYKNRDEIFHYYHTMVAYMRLLYQVCRLVHADLSEYNTIVHDDKLYMIDVSQSVEPEHPMSLDFLRMDIKNVNLYFEKMGISIFPERVIFQFVISETLEKFKGDYNNISALVAYIASNLPIKSTEQDEAEDEIFRSLHLVRSLGGLEERDFDRYTDGKFDLLKSLIAHDNERNFAASEQFEFDNADHECSSGTEEFSDDEEDGSSGSEEDDEEEGEYYDDDEPKVLKGKKHEDKDLKKLRKQEAKDAKREKRKTKVKKHIKKKLVKKTKSKK
In the case of B3, the binding entry in assay [1] is “no binding”.
